Data from PMC7360774.
Results are given in words; binding and its absence hold for the method and conditions named. In cells and extracts the contact can be indirect. Some entries that bind do so weakly or less than the wild type. For some assays here: Where a sequence is shown, tags or fusion partners need not be part of it.

Chains of the proteins cited; added tags and fusions are not shown.
UniProt P35579: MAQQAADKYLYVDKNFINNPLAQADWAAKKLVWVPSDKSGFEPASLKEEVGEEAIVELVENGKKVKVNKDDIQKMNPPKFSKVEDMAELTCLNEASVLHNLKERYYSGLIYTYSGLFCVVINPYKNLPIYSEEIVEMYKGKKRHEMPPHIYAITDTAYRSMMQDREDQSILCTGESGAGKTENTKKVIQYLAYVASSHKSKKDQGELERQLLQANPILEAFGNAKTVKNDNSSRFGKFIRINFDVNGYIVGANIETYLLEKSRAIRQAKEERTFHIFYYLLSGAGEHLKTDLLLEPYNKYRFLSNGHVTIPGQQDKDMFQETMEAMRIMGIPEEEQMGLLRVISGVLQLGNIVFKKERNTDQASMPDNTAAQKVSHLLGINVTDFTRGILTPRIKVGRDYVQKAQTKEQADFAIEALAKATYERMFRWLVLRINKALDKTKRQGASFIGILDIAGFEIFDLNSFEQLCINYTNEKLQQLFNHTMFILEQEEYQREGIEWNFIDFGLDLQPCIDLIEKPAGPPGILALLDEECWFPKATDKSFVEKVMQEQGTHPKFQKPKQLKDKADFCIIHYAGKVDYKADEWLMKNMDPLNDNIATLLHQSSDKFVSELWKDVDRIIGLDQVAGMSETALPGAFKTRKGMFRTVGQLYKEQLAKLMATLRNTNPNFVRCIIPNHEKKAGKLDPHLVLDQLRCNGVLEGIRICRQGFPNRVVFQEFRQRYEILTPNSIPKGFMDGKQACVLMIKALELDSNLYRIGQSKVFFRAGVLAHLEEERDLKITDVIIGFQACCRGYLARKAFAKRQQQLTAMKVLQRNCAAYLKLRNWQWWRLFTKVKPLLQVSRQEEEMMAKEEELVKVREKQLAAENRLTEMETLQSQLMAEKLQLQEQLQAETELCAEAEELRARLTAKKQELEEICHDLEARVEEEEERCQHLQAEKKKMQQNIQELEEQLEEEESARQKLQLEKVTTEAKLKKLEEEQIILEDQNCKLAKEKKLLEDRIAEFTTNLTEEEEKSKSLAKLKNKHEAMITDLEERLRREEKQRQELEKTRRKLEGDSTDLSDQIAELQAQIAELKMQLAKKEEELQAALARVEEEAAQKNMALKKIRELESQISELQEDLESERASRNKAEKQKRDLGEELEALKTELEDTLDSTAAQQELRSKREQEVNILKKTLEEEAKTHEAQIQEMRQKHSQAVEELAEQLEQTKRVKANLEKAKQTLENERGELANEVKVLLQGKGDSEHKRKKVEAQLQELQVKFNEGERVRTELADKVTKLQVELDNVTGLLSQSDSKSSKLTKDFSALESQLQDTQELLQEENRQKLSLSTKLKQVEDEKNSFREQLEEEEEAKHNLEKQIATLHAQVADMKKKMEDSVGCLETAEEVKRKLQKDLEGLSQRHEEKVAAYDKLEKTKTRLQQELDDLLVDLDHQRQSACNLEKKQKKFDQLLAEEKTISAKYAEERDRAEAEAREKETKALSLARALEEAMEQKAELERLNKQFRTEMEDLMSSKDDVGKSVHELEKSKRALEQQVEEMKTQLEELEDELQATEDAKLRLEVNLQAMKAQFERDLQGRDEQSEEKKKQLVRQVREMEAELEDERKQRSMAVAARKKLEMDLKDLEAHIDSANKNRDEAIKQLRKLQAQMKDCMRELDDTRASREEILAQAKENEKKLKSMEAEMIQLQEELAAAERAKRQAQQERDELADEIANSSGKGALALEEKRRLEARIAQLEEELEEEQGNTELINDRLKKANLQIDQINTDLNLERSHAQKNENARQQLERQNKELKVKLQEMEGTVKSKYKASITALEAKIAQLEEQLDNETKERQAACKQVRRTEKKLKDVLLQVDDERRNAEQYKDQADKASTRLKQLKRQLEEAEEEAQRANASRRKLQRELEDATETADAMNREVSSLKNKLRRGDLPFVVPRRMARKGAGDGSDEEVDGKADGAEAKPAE

What was measured:
GST-NudCL2 (human) = target: T1, GST-NudCL2 (human) (UniProt Q8WVJ2); assay: pull-down; purified GST or GST-NudCL2 incubated with A549 cell lysates; immunoblot with anti-Myosin-9 antibody; only the target purified
T1 sequence: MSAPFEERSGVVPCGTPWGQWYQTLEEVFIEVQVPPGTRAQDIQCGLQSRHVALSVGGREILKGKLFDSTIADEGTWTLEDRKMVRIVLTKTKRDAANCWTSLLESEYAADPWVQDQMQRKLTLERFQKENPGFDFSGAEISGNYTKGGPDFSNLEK

[1] = target: T2, NudC-like protein 2 (NudCL2), endogenous (human (endogenous in A549)) (UniProt Q8WVJ2); assay: co-IP; endogenous proteins, A549 whole-cell extracts in TBSN buffer (20 mM Tris pH 8.0, 150 mM NaCl, 0.5% Nonidet P-40, 5 mM EGTA, 1.5 mM EDTA); immunoprecipitation with the indicated antibodies, western blot
T2 sequence: T1 sequence

myosin-9 (endogenous, A549) (from UniProt P35579 1-1960)
binding (GST-NudCL2 (human)): binds | binding [1]: binds
